Laboratory results: PMC9563422
Results are given in words; binding and its absence hold for the method and conditions named. Binding seen in cells or lysates may run through a third protein. Some entries that bind do so weakly or less than the wild type. For some assays here: Tags and fused reporters may be left off the sequences shown. Blank lines part the entries; values can stand above or below the molecule they belong to.

Sequences of proteins named here, by UniProt entry; tags and fusion partners are left off.
UniProt Q92993: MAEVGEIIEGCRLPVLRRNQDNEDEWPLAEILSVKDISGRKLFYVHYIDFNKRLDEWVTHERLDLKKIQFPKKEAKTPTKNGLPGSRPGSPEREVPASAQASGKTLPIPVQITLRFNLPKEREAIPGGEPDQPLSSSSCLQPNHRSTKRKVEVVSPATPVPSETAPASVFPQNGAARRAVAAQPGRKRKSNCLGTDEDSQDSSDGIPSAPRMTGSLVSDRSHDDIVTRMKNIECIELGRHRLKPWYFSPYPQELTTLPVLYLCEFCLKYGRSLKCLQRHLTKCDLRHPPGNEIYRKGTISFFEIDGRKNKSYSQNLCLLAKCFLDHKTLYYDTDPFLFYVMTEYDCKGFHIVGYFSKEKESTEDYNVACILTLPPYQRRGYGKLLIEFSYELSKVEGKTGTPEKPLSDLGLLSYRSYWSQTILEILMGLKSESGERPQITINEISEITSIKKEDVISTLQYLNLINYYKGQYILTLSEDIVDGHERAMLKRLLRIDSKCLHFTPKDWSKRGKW

Columns and labels:
[1] = biological target: T1, GST-PXR ligand binding domain (107-434 aa) (UniProt O75469); test: pull-down; GST-PXR fragments (1 ug) on beads, incubated with in vitro translated Tip60 in buffer with 100 mM NaCl at 4 °C overnight; washes with 150 mM NaCl; Western blot; only the target purified
T1 sequence: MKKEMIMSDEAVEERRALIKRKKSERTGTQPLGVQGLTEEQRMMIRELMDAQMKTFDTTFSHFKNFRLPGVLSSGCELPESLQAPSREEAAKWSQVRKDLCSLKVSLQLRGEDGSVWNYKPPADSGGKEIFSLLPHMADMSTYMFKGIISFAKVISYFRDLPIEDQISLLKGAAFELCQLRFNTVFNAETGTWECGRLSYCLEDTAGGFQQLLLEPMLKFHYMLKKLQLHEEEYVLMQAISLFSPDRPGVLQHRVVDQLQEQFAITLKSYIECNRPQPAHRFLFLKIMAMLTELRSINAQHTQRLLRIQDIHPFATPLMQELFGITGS

[2] = biological target: T2, PXR (endogenous, A549/TR cells) (human (endogenous in A549/TR)) (UniProt O75469); test: co-IP; cells treated with PTX and SPA70 together for 24 h, then arrested in specific cell cycle phases with thymidine (Tdr) and nocodazole; PXR antibody precipitates endogenous Tip60; Western blot
T2 sequence: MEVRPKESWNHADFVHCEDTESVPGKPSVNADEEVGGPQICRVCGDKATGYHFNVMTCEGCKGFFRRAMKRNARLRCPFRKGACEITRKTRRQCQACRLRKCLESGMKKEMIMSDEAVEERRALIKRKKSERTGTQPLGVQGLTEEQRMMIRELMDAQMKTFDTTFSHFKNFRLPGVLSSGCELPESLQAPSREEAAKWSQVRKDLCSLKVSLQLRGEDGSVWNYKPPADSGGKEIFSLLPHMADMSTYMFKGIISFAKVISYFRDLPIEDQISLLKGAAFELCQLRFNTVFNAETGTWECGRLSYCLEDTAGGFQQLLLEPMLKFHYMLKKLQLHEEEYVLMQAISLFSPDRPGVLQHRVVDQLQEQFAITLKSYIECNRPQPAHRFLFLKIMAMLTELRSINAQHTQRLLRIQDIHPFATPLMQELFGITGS

GST-Tip60 [3] = biological target: GST-Tip60 (UniProt Q92993); test: pull-down; GST, GST-Tip60 (20 uL glutathione agarose) or GST-Tip60 truncated proteins (1 ug) on beads, incubated with 5 uL in vitro translated PXR in buffer with 100 mM NaCl at 4 °C overnight; washes with 150 mM NaCl; Western blot with PXR antibody; only the target purified
GST-Tip60 [4] = biological target: GST-Tip60 (UniProt Q92993); test: pull-down; GST-Tip60 or GST incubated with lysates of A549/TR cells treated with 2 nM PTX, 10 uM SPA70 or both; endogenous PXR detected; only the target purified
FLAG-Tip60 = FLAG-Tip60 (UniProt Q92993); test: co-IP; H1299 cells co-transfected with FLAG-Tip60 (3 ug) and PXR (3 ug); 1 ug FLAG antibody; RIPA buffer with 100 mM NaCl at 4 °C overnight, protein A/G agarose, washes with 150 mM NaCl; Western blot

Molecule: Tip60 (endogenous, A549/TR cells) (from UniProt Q92993 1-513) (enzyme)
- binding [2]: binds

B2: PXR (endogenous, A549/TR cells) (receptor, UniProt O75469 1-434)
chain: MEVRPKESWNHADFVHCEDTESVPGKPSVNADEEVGGPQICRVCGDKATGYHFNVMTCEGCKGFFRRAMKRNARLRCPFRKGACEITRKTRRQCQACRLRKCLESGMKKEMIMSDEAVEERRALIKRKKSERTGTQPLGVQGLTEEQRMMIRELMDAQMKTFDTTFSHFKNFRLPGVLSSGCELPESLQAPSREEAAKWSQVRKDLCSLKVSLQLRGEDGSVWNYKPPADSGGKEIFSLLPHMADMSTYMFKGIISFAKVISYFRDLPIEDQISLLKGAAFELCQLRFNTVFNAETGTWECGRLSYCLEDTAGGFQQLLLEPMLKFHYMLKKLQLHEEEYVLMQAISLFSPDRPGVLQHRVVDQLQEQFAITLKSYIECNRPQPAHRFLFLKIMAMLTELRSINAQHTQRLLRIQDIHPFATPLMQELFGITGS
- binding (GST-Tip60 [4]): binds

B3: PXR (transfected in H1299 cells) (receptor, UniProt O75469 1-434)
chain: MEVRPKESWNHADFVHCEDTESVPGKPSVNADEEVGGPQICRVCGDKATGYHFNVMTCEGCKGFFRRAMKRNARLRCPFRKGACEITRKTRRQCQACRLRKCLESGMKKEMIMSDEAVEERRALIKRKKSERTGTQPLGVQGLTEEQRMMIRELMDAQMKTFDTTFSHFKNFRLPGVLSSGCELPESLQAPSREEAAKWSQVRKDLCSLKVSLQLRGEDGSVWNYKPPADSGGKEIFSLLPHMADMSTYMFKGIISFAKVISYFRDLPIEDQISLLKGAAFELCQLRFNTVFNAETGTWECGRLSYCLEDTAGGFQQLLLEPMLKFHYMLKKLQLHEEEYVLMQAISLFSPDRPGVLQHRVVDQLQEQFAITLKSYIECNRPQPAHRFLFLKIMAMLTELRSINAQHTQRLLRIQDIHPFATPLMQELFGITGS
- binding (FLAG-Tip60): binds

The remaining lines, values ahead:

- binding [1]: binds
Molecule: in vitro translated Tip60 (from UniProt Q92993 1-513) (enzyme)

- binding (GST-Tip60 [3]): binds
B1: in vitro translated PXR (receptor, UniProt O75469 1-434)
chain: MEVRPKESWNHADFVHCEDTESVPGKPSVNADEEVGGPQICRVCGDKATGYHFNVMTCEGCKGFFRRAMKRNARLRCPFRKGACEITRKTRRQCQACRLRKCLESGMKKEMIMSDEAVEERRALIKRKKSERTGTQPLGVQGLTEEQRMMIRELMDAQMKTFDTTFSHFKNFRLPGVLSSGCELPESLQAPSREEAAKWSQVRKDLCSLKVSLQLRGEDGSVWNYKPPADSGGKEIFSLLPHMADMSTYMFKGIISFAKVISYFRDLPIEDQISLLKGAAFELCQLRFNTVFNAETGTWECGRLSYCLEDTAGGFQQLLLEPMLKFHYMLKKLQLHEEEYVLMQAISLFSPDRPGVLQHRVVDQLQEQFAITLKSYIECNRPQPAHRFLFLKIMAMLTELRSINAQHTQRLLRIQDIHPFATPLMQELFGITGS
